Laboratory results reported in US20240027428A1, “METHOD FOR BUILDING CO-CULTURE MODEL FOR CACO-2/RAW-264.7 CELLS INDUCED BY LIPOPOLYSACCHARIDES AND APPLICATION OF CO-CULTURE MODEL” (ZHEJIANG UNIVERSITY OF TECHNOLOGY, priority 2022, published 2024).

Test system: Caco-2 cells
Assay: Transport tests for Lucifer yellow across Caco-2 monolayer in Transwell
Format: in vitro ADME
Conditions: Ex=427 nm, Em=536 nm, n=3
Procedure: Drawing of a standard curve for Lucifer yellow: 0.005 μg/mL, 0.01 μg/mL, 0.025 μg/mL, 0.05 μg/mL, 0.1 μg/mL, and 0.25 μg/mL of standard solutions for Lucifer yellow were prepared, the fluorescence intensities (an excitation wavelength: 427 nm, and an emission wavelength: 536 nm) of the standard solutions for Lucifer yellow were measured with a fluorescence spectrophotometer, and linear regression was performed with the fluorescence intensity as an ordinate and the concentration ([…]) as an abscissa. A standard curve was drawn.
Transport tests for Lucifer yellow: Caco-2 cells grew to 21 days in a Transwell, and then a culture medium was sucked and discarded. A preheated HBSS was added to both an AP side and a BL side for cleaning twice and was sucked and discarded, and then a preheated HBSS was added to perform culture under the conditions of 37° C. and 5% CO2 for 20 min. […] Under the condition of Ex=427 nm and Em=536 nm, the fluorescence intensity was measured according to a standard curve and a transport formula. A concentration and permeability coefficient of a transport solution for the Lucifer yellow CH on the BL side were calculated. […]

## Lucifer yellow
60 min
  fluorescence intensity on BL side: 26.512 +/−1.502
120 min
  fluorescence intensity on BL side: 27.035 +/−3.184

Some values come without a unit; they compare only within their column.
